Test results: US20150030595A1
No constants are given. Whether binding was seen depends on the method and setting. For part of these data: Binding seen in cells or lysates may run through a third protein. Some binding calls cover weakened binding; strength is not graded here.

Chains of the proteins cited; added tags and fusions are not shown. Residues count along the entry.
UniProt P27040, residues 19-536: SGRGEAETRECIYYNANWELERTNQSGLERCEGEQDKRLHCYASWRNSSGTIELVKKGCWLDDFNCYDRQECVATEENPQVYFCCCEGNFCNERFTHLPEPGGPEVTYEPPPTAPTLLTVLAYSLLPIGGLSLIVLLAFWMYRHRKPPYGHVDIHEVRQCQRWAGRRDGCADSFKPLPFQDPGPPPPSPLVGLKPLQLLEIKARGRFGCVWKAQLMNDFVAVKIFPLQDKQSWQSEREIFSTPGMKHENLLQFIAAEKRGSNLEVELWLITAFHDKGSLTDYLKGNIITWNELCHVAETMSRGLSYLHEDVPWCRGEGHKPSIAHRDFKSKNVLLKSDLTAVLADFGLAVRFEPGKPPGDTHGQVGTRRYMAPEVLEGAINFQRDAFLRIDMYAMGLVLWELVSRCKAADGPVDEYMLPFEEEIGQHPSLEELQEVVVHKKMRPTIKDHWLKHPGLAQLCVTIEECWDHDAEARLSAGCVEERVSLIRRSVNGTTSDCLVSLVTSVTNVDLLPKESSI

How the values were obtained:
[1] = target: ACVR2B in the lysate of the myoblast C2C12 cell line (UniProt P27040); test: immunoprecipitation from C2C12 lysate with F08 and B09, western blot
[2] = target: T1, myostatin in the lysate of the myoblast C2C12 cell line (UniProt O08689); test: as above
T1 sequence (looked up): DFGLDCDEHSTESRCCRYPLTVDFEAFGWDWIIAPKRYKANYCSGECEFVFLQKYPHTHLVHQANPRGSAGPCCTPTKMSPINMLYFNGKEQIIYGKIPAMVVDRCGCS

[3] = target: ACVR2B in the lysate of the myoblast C2C12 cell line (UniProt P27040); test: co-immunoprecipitation from C2C12 lysate (IP with the ACVR2B antibody, blot for DLK1); a complex, not shown to be direct

Measured: binding

B1: DLK1 in the lysate of the myoblast C2C12 cell line (protein, UniProt Q09163 24-385, looked up)
chain: AECDPPCDPQYGFCEADNVCRCHVGWEGPLCDKCVTAPGCVNGVCKEPWQCICKDGWDGKFCEIDVRACTSTPCANNGTCVDLEKGQYECSCTPGFSGKDCQHKAGPCVINGSPCQHGGACVDDEGQASHASCLCPPGFSGNFCEIVAATNSCTPNPCENDGVCTDIGGDFRCRCPAGFVDKTCSRPVSNCASGPCQNGGTCLQHTQVSFECLCKPPFMGPTCAKKRGASPVQVTHLPSGYGLTYRLTPGVHELPVQQPEQHILKVSMKELNKSTPLLTEGQAICFTILGVLTSLVVLGTVAIVFLNKCETWVSNLRYNHTFRKKKNLLLQYNSGEELAVNIIFPEKIDMTTFNKEAGDEEI
binds: all assays above
